Reference: article PMC12677607, “Identification of a Pair of Linear or Cyclic Naturally Inspired Bifunctional Lipopeptide Antibiotics That Overcome Antimicrobial Resistance” (Advanced Science, 2025)
Values after ≈ are worked out from the molar mass of the structure shown.

Legend:
Escherichia coli DH5α = test: MIC assay (broth micro-dilution); type: cell-based; settings: Table S11, LB broth, 37 °C, 16 h, n = 2
Description: (§1) All MIC assays were performed two independent times (n = 2) in 96‐well plates using a broth micro‐dilution method. The lowest concentration of that inhibited visible microbial growth was recorded as the MIC value.
(§2) For most of bacterial strains, overnight cultures were diluted 5000‐fold in LB broth. For E. faecium and S. aureus, overnight cultures were diluted 1000‐ and 10000‐fold in LB broth, respectively. 100 µL of diluted cells was mixed with 100 µL of LB broth containing each peptide ranging from 64 to 0.125 µg mL^−1 at 2‐fold serial dilutions.

B. subtilis ATCC 23857 = test: MIC assay (broth micro-dilution); type: cell-based; settings: Bacillus subtilis, ATCC23857, 16 h, read-out: MIC Bacllussubtilis ATCC 23857
Description: as §1, §2

Row | SMILES | MIC (Escherichia coli DH5α) | MIC (B. subtilis ATCC 23857)
1 | C[C@@H](O)[C@H]1C(=O)N2C(C(=O)O)=C(S[C@@H]3CN[C@H](C(=O)N(C)C)C3)[C@H](C)[C@H]12 [Meropenem, reference compound] | < 0.125 µg/mL | 
2 | CN[C@H](CC(C)C)C(=O)N[C@H]1C(=O)N[C@@H](CC(N)=O)C(=O)N[C@H]2C(=O)N[C@H]3C(=O)N[C@H](C(=O)N[C@H](C(=O)O)c4cc(O)cc(O)c4-c4cc3ccc4O)[C@H](O)c3ccc(c(Cl)c3)Oc3cc2cc(c3O[C@@H]2O[C@H](CO)[C@@H](O)[C@H](O)[C@H]2O[C@H]2C[C@](C)(N)[C@H](O)[C@H](C)O2)Oc2ccc(cc2Cl)[C@H]1O [Vancomycin, reference compound] |  | 0.25 µg/mL (≈ 0.173 µM)
